Source: publication PMC5727116
These are yes or no findings as the source states them, for the method shown. Binding seen in cells or lysates may run through a third protein.

Chains of the proteins cited; added tags and fusions are not shown.
UniProt Q00987: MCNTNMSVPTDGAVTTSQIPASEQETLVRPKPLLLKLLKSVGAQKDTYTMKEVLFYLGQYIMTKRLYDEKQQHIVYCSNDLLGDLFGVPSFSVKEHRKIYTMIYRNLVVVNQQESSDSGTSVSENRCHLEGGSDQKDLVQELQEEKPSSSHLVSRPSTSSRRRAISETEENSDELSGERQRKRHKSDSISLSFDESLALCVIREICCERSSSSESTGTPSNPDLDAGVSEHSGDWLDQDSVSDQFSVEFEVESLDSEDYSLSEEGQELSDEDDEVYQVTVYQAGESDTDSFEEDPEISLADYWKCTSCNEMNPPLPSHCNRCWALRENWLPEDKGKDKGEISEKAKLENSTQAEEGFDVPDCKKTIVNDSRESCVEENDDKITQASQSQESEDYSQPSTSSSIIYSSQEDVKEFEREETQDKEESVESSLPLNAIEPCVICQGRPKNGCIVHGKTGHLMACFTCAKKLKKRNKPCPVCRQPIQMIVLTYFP

Molecular target: T1, endogenous PEPD of UM-UC-3 cells, HCT116 cells and HCT116 sublines (human (endogenous in UM-UC-3 and HCT116)) (UniProt P12955)
T1 sequence: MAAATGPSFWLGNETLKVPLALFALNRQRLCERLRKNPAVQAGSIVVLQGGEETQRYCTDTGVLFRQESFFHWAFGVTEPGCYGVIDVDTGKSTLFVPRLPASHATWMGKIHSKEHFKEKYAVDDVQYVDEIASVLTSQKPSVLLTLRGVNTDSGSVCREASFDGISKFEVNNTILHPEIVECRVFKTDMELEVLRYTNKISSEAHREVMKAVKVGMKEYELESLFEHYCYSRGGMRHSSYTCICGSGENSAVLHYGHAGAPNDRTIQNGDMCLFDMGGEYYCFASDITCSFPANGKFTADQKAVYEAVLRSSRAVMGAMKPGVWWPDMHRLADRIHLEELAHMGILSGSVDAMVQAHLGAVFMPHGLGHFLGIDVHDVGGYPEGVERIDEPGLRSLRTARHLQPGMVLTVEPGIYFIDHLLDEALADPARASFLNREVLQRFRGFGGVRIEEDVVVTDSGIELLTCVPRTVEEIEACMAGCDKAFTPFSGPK
Assay: co-IP; mitochondria-free lysates of UM-UC-3 cells treated with control or PEPD siRNA for 48 h; IP-IB

**Q.** With “MDM2, endogenous (from UniProt Q00987 1-491) (enzyme)” as the substance, how does the binding read?
**A.** no binding
